Library screening results

The values are deposited in ChEMBL (CHEMBL3988442, “University of Dundee, Small-Polar-MMV Screening Library” (2021)).

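Whole-cell assay for inhibitors of Mycobacterium tuberculosis growth, labelled Cornell in the record; the read-out is not stated. The concentration is filed as 10 mM, unlikely as a test dose, so the dose is not known. Higher means stronger inhibition (inferred from two other growth screens of the library). About 53,000 compounds were tested under these conditions; 1.7% (about 900) showed 50% or more at least once.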

Each number is a percent effect as filed. The controls that fix the scale are not given in the record; negative values are as filed. This is an unselected part of the compounds tested.

| SMILES | percent effect |
|---|---|
| `CCc1c(C(=O)N2CCCN(C(C)=O)CC2)cnn1C(C)(C)C` | -11 |
| `CCN1CCN(Cc2csc(C(C)C)n2)CC1` | 4.752 |
| `O=C(CCS(=O)(=O)C1CCCC1)NCCc1cccc(O)c1` | -11.95 |
| `O=C(c1ccc[nH]1)N1CCOCC2(C1)CN(c1ccccc1)C(=O)CO2` (stereo not shown) | 34.74 |
| `Cc1cc(NC(=O)C2CCCN(C(=O)NCC(C)C)C2)ccn1` (stereo not shown) | 4.899 |
| `CCNc1ncc(C(=O)N(C)C(C)c2ccc3c(c2)OCCO3)cn1` (stereo not shown) | -12.42 |
| `[H][C@]12CCCN(S(=O)(=O)c3ccc(OC)cc3)[C@@]1([H])CN(C(=O)C1CC1)C2` | -64.46 |
| `Cc1csc(CNC(=O)NCC(O)c2ccccc2)n1` (stereo not shown) | -28.19 |
| `CN(C)C(=O)Cc1ccccc1NCc1cccc2cccnc12` | -14.14 |
| `[H][C@]12CC[C@]([H])(CN(C(=O)c3ccccn3)C1)N(C(=O)CN1CCOC1=O)C2` | -67.6 |
| `Cc1ccccc1CN(CCO)Cc1ncc[nH]1` | 5.036 |
| `Cc1cc(NC(C)c2n[nH]c(C)n2)n2nc(C)c(C)c2n1` (stereo not shown) | -17.37 |
| `OC1CCN([C@@H]2CCN(c3nc(-c4ccccc4)no3)C[C@H]2O)CC1` | -36.74 |
| `NC(=O)C1CN(C(=O)Nc2ccc(SC(F)(F)F)cc2)CCO1` (stereo not shown) | 4.295 |
| `CC(=O)N(Cc1ccc(NCc2cnn(C(C)(C)C)c2)cc1)C(C)C` | 24.35 |
| `CS(=O)(=O)C1(C(=O)NC2CCc3nccn3C2)CCCC1` (stereo not shown) | -13.97 |
| `COc1ccc(S(=O)(=O)NC(=O)C(C)OC)c(OC)c1` (stereo not shown) | 0.05564 |
| `c1ccc(-n2cc(CN3CCCC3Cn3cncn3)nn2)cc1` (stereo not shown) | 14.55 |
| `Cc1ccccc1CCNC(=O)C1CC(=O)N(CC(F)(F)F)C1` (stereo not shown) | 9.574 |
| `COCC(=O)N1C[C@@H](c2cc(O)nc(C)n2)[C@H](c2ccccc2F)C1` | -7.441 |
| `CCC(CC)c1cc(C(=O)N2CCN(C(C#N)C(C)C)CC2)on1` (stereo not shown) | 23.54 |
| `COCCCN1CC2(CCCN(CCn3cc(Cl)cn3)C2)CCC1=O` (stereo not shown) | -12.43 |
| `COCC1CN(C(=O)c2cnc(C)cn2)Cc2ncnn2C1` (stereo not shown) | 9.01 |
| `CN1CC(=O)N(c2ccccc2)CC12CCN(Cc1nccn1C)C2.O=C(O)C(F)(F)F.O=C(O)C(F)(F)F` (stereo not shown) | 5.409 |
| `CNS(=O)(=O)CC(=O)NC(C)Cc1ccc(Br)cc1` (stereo not shown) | -38.44 |
| `Cc1cnc(N2C(=O)CSC2c2cccs2)s1` (stereo not shown) | -19.73 |
| `Cn1nc(CN2CCOCC2)c2c1CN(Cc1ccsc1)C2.O=C(O)C(F)(F)F.O=C(O)C(F)(F)F` | -31.2 |
| `Cc1cc(-c2cnn(CCNC(=O)c3cccnc3)c2C2CC2)on1.Cl` | 17.65 |
| `CN(c1ncccc1CNC(=O)c1csnn1)C1CCCCC1` | -2.765 |
| `COc1ccc(Br)cc1CCC(=O)N1CCSCC1` | -25.68 |
| `NC(=O)C1(Cc2ccc(-c3ccccc3)cc2)CCNC1` (stereo not shown) | -18.45 |
| `CCc1c(C)nc(C)nc1N1C[C@@H](CN(C)C)[C@@H](CO)C1` | -3.54 |
| `COc1ccccc1NC(=O)NCc1nnc(SC)n1C` | 27.26 |
| `Cc1cc(-c2ccccc2C(=O)O)nc(C2CCCN(C(C)C)C2)n1` (stereo not shown) | 18.36 |
| `COc1cc(C(=O)NCC2(N(C)C)CCN(C)CC2)c2ccccc2n1` | 19.11 |
| `Cn1c(=O)c2cc(C(=O)NCc3ccccn3)ccc2n(C)c1=O` | -4.844 |
| `N#Cc1c2n(c3c(=O)[nH]cnc13)CCCCC2` | -16.4 |
| `CS(=O)(=O)NC1CCN(C(=O)c2ccc3ccccc3c2)C1` (stereo not shown) | 10.72 |
| `Cc1cc(C)n(C2CCN(Cc3nc4ccccc4n3C)CC2)n1` | 18.24 |
| `COc1ccnc(N2CCN(CC(=O)N3CCOC(C)C3)CC2)n1` (stereo not shown) | -11.75 |
| `O=C(O)C(F)(F)F.[H][C@@]12CCN(Cc3ccco3)C[C@@]1([H])O[C@H](C(=O)NCC1CCOCC1)C2` | 24.51 |
| `CCN(C)C(=O)c1cnc(-c2noc3cc(N4CCCCC4)ccc23)s1` | -34.56 |
| `COc1ccccc1N1CCCC(Nc2nccnc2C#N)C1` (stereo not shown) | 24.15 |
| `Cc1[nH]ncc1C(=O)NCC1CCC2(CC1)OCCO2` | -4.322 |
| `COCCn1c(CN2CCCCO2)cnc1S(=O)(=O)CC1CCCCC1` | 27.57 |
| `CC(C)(C)CNC(=O)c1ccc(C(=O)O)cc1` | 24.4 |
| `OCc1ccc(CN2CCC(n3cc(C4CCCCC4)nn3)CC2)o1` | 17.88 |
| `O=C(N[C@H]1CCCC[C@@H]1O)c1cccc(-c2nc3ccccc3[nH]2)c1` | -6.607 |
| `CC(=O)NCCCC(=O)N1CCC(Sc2cccc(C)c2)CC1` | 15.76 |
| `O=C(O)C(F)(F)F.[H][C@@]12OCCN(Cc3ccco3)[C@@]1([H])CC[C@@H]2OCC1CC1` | 1.363 |
| `CN(Cc1noc(C2CC2)n1)C1CCN(CCn2cccn2)C1` (stereo not shown) | -3.477 |
| `COc1ccc(CC(C)Nc2cccc(SC)c2)cc1` (stereo not shown) | 33.31 |
| `COCCNC(=O)NC(=O)CNc1c(F)cccc1N1CCCC1` | -5.822 |
| `COC(=O)c1ccc(N(C(=O)c2cscn2)C(C)C)c(C)c1` | 3.779 |
| `CCN(CC)C(=O)c1c(Br)cnn1CC` | -5.374 |
| `CCNc1ccnc(N2CCCC(CCOC)(C(=O)O)C2)n1` (stereo not shown) | -12.62 |
| `CN(C)C(=O)CC1CC2(CCN(Cc3cccs3)CC2)c2ccccc21.O=C(O)C(F)(F)F` (stereo not shown) | -4.121 |
| `Cc1ncccc1Oc1ncnc(N2CCCC(O)(CO)CC2)c1C` (stereo not shown) | -3.689 |
| `Cc1nn(C)c(C)c1-c1cnc(CC2CCNCC2)cn1` | 9.1 |
| `Cc1cc(C(=O)N2CCCCC2c2nc(C)cs2)[nH]n1` (stereo not shown) | 16.62 |
| `CC(C)c1noc(C2CCN(C(=O)c3cccs3)CC2)n1` | -0.4428 |
| `COc1ccc(C(=O)NS(=O)(=O)c2cc(Cl)sc2Cl)cc1OC(F)F` | 76.92 |
| `C[C@@H](CO)Nc1cc(-c2cn[nH]c2)ncn1` | -34.55 |
| `CCc1ccc(S(=O)(=O)Nc2c(C)cccc2C(=O)O)s1` | 52.73 |
| `CC1COCCN1C(=O)NCCCn1ccnc1` (stereo not shown) | -3.693 |
| `CCOC(=O)[C@H]1[C@@H](O)C(=O)N(C)C12CCN(C(=O)CC(C)C)CC2` | -7.007 |
| `O=C(NC1(c2nnn(CCO)n2)CCCC1)c1ccccc1` | 12.26 |
| `COc1ccc(CNc2cc(-c3nc(C)no3)ccn2)c(OC)c1` | 20.89 |
| `O=C(O)c1ccccc1-n1cnc(CN2CCc3ccccc3C2)c1` | -15.84 |

9 of the entries, repeated:

- Cn1c(=O)c2cc(C(=O)NCc3ccccn3)ccc2n(C)c1=O : -4.844%
- Cc1ccccc1CCNC(=O)C1CC(=O)N(CC(F)(F)F)C1 (stereo not shown) : 9.574%
- CN(C)C(=O)CC1CC2(CCN(Cc3cccs3)CC2)c2ccccc21.O=C(O)C(F)(F)F (stereo not shown) : -4.121%
- Cc1csc(CNC(=O)NCC(O)c2ccccc2)n1 (stereo not shown) : -28.19%
- CCc1ccc(S(=O)(=O)Nc2c(C)cccc2C(=O)O)s1 : 52.73%
- N#Cc1c2n(c3c(=O)[nH]cnc13)CCCCC2 : -16.4%
- CN(Cc1noc(C2CC2)n1)C1CCN(CCn2cccn2)C1 (stereo not shown) : -3.477%
- O=C(NC1(c2nnn(CCO)n2)CCCC1)c1ccccc1 : 12.26%
- COC(=O)c1ccc(N(C(=O)c2cscn2)C(C)C)c(C)c1 : 3.779%